No constants are given. Whether binding was seen depends on the method and setting. In cells and extracts the contact can be indirect. These calls come from enrichment with a bait or labelling near it, and not all partners need be listed. For some of these results: Sequences can lack the tags named with a protein.
Tests used:
Test in all cases: affinity purification with mass spectrometry; Halo-tagged bait stably expressed in Flp-In-293 cells; lysate with HL-SAN nuclease 2 U/ml for 2 h at 4 °C; bait captured on Magne HaloTag Beads, eluted with AcTEV Protease; MudPIT; enrichment over cells without transgene by QSPEC (Z-statistic >= 3 and log2 fold change >= 2)
[1] = molecular target: T1, Halo-tagged BRMS1 (human) (UniProt Q9HCU9)
T1 sequence: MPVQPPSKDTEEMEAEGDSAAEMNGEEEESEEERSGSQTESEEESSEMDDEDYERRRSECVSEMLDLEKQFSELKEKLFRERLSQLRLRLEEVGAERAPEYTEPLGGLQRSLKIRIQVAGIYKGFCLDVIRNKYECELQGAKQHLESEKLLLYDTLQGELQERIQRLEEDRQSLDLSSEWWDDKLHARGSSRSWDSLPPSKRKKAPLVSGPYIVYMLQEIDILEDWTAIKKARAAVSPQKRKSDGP

Chains of the proteins cited; added tags and fusions are not shown.
UniProt Q13547: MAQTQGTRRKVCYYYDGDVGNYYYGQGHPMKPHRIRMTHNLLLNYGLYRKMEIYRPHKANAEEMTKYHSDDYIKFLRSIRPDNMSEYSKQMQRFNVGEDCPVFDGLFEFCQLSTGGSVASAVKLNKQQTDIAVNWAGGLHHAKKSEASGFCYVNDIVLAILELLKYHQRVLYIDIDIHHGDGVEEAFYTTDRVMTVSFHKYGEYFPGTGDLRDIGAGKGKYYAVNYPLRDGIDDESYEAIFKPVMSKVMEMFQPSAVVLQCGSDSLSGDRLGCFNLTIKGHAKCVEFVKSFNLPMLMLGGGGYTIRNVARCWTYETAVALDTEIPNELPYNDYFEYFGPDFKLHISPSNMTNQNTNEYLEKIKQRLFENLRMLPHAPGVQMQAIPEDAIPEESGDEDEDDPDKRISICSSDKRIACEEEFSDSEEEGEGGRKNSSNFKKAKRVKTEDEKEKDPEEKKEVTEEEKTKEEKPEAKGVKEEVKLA
UniProt Q92769: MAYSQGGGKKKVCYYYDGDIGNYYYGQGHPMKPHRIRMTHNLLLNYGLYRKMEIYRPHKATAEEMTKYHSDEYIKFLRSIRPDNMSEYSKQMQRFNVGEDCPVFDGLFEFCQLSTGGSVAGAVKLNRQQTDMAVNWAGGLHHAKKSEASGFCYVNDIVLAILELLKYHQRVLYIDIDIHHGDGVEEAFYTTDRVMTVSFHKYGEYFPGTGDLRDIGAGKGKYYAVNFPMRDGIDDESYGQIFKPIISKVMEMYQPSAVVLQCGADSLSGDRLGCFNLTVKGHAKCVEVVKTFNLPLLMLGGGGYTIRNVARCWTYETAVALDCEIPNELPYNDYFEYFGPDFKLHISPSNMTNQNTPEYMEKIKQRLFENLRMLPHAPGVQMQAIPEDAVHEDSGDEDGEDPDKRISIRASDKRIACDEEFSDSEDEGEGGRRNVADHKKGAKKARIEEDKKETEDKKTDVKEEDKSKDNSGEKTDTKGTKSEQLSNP
UniProt Q9UBU8: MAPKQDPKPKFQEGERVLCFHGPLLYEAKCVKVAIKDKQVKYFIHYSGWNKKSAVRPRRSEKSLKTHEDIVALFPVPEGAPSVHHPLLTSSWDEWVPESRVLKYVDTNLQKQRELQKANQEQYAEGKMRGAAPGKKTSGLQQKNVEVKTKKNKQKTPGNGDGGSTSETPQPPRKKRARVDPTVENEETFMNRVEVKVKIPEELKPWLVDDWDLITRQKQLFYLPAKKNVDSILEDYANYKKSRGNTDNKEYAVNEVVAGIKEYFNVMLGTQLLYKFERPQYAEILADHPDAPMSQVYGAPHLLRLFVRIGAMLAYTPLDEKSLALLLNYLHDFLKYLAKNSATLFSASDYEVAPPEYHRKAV
UniProt Q96QT6: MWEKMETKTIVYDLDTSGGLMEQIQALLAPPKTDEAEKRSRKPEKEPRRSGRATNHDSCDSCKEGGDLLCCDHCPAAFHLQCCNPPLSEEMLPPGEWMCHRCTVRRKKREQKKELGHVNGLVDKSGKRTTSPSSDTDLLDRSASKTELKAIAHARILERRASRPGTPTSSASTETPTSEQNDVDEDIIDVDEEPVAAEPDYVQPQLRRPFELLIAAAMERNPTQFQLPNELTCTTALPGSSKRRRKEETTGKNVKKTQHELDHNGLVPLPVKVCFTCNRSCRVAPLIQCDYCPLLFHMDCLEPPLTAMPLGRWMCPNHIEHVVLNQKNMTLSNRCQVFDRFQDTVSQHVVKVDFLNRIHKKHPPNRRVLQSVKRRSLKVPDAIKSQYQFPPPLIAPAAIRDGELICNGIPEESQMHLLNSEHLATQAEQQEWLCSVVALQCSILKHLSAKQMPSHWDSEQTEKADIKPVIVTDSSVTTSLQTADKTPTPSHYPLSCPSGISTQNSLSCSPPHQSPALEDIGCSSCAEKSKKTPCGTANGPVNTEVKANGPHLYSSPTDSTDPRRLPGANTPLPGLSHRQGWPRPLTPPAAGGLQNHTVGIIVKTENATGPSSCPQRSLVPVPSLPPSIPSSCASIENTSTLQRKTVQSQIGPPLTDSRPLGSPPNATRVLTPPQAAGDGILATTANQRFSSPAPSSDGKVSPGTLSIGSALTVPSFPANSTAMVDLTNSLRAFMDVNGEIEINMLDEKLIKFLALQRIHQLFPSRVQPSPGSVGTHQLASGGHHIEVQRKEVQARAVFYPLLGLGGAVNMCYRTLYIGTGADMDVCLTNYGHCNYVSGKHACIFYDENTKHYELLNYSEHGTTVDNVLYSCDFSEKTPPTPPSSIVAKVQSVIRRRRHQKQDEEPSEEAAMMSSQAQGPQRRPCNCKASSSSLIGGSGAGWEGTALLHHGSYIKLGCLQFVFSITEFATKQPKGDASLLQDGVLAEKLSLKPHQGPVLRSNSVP

[2] = molecular target: T2, Halo-tagged BRMS1L (human) (UniProt Q5PSV4)
T2 sequence: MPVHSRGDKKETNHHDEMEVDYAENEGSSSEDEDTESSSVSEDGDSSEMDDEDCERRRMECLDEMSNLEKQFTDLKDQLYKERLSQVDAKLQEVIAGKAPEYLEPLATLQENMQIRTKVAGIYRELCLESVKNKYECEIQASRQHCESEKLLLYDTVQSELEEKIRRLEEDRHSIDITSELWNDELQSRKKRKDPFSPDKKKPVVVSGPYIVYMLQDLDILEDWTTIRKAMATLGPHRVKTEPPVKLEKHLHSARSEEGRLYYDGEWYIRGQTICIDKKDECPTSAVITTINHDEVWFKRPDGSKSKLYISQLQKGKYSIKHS

[3] = molecular target: Halo-tagged HDAC1 (human) (UniProt Q13547)
[4] = molecular target: Halo-tagged HDAC2 (human) (UniProt Q92769)
[5] = molecular target: Halo-tagged MORF4L1 (human) (UniProt Q9UBU8)
[6] = molecular target: Halo-tagged PHF12 (human) (UniProt Q96QT6)
HaloTag-SUDS3 (human) = molecular target: T3, HaloTag-SUDS3 (human) (UniProt Q9H7L9)
T3 sequence: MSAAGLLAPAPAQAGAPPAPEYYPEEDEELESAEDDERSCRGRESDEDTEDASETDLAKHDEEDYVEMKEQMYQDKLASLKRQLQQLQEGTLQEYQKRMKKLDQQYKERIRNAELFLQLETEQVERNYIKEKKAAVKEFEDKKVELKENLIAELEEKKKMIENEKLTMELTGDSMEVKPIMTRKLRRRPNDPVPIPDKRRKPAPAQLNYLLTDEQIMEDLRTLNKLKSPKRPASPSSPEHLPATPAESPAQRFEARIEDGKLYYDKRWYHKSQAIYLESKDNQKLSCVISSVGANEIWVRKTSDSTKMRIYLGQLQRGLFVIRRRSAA

Measured: binding

SIN3B (native) (from UniProt O75182-2)
binds: all assays above

From paper PMC8143632
